Among the data in publication PMC13436964 are binding values, retold here.

The chains behind the UniProt entries cited, without tags or fusion partners.
UniProt Q3UHZ5: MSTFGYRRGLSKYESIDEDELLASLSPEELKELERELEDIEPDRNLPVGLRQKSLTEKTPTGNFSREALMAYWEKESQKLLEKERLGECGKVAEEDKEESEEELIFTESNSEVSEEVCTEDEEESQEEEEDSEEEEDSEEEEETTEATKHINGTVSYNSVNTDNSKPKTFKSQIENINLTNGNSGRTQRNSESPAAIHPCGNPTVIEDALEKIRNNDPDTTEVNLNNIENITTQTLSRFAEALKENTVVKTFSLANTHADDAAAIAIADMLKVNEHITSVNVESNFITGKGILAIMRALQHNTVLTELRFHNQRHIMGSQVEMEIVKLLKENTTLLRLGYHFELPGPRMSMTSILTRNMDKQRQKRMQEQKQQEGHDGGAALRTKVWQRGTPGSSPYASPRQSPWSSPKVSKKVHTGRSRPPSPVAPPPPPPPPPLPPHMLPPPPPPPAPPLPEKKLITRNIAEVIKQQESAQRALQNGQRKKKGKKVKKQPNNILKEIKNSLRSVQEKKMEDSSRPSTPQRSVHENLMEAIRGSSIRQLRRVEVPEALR

No constants are given. Whether binding was seen depends on the method and setting. In cells and extracts the contact can be indirect. Some entries that bind do so weakly or less than the wild type. For some of these results: Sequences can lack the tags named with a protein.

Experiment [1] concerns the target T1, SIRT1-GFP (UniProt Q923E4).
T1 sequence: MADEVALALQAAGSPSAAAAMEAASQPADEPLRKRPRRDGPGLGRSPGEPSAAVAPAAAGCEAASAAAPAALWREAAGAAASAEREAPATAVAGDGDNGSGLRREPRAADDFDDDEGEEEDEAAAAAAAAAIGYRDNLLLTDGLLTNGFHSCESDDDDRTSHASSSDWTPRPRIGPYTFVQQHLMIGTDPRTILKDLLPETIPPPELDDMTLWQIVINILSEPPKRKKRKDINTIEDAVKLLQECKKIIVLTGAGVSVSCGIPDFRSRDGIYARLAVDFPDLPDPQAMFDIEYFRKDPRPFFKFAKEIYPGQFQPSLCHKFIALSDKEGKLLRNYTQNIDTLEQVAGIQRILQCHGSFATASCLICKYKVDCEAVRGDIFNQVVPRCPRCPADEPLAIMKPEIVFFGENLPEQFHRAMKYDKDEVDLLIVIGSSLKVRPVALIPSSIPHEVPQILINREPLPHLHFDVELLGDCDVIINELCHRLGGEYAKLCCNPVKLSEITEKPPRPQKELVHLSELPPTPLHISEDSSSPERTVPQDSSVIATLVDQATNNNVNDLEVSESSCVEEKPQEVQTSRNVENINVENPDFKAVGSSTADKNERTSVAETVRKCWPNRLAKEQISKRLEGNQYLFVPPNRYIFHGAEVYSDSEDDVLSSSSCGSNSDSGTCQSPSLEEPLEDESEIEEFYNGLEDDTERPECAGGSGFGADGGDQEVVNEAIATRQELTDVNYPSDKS
Briefly: co-IP; GFP-Trap agarose on lysates of HEK293T cells expressing LMOD1-BirA* or LMOD2-BirA* (tetracycline) and transfected with SIRT1-GFP or GFP; 1 hr at 4 °C; eluates blotted with anti-BirA and anti-GFP.

For experiment [2], the target named is T2, sirtuin 1 (SIRT1), endogenous in mouse primary myoblasts (mouse (endogenous in primary myoblasts)) (UniProt Q923E4).
T2 sequence: T1 sequence
Briefly: proximity ligation; Duolink PLA with anti-Sirt1 and anti-Lmod1 antibodies in fixed mouse primary myoblasts during proliferation.

Experiment [3] has as its target T2, sirtuin 1 (SIRT1), endogenous in mouse primary myoblasts (mouse (endogenous in primary myoblasts)). Briefly: proximity ligation; Duolink PLA with anti-Sirt1 and anti-Lmod1 antibodies in fixed mouse primary myoblasts after 1 day of differentiation.

As for “LMOD2-BirA*-FLAG (from UniProt Q3UHZ5 1-550)”, the binding entry in experiment [1] was “binds”.

B1: leiomodin 1 (LMOD1), endogenous in mouse primary myoblasts (protein, UniProt Q8BVA4 1-595)
chain: MSKVAKYRRQVSEDPDIDSLLSTLSPEEMEELEKELDVVDPDGSIPVGLRQRNQTDKQPSGSFNREAMLNFCEKESKKLIQREMSVDESKQVGRKTDAKNGEEKDSDASRKAPGPRQDSDLGKEPKKGVLKKSFSRDREEADGRGGEKPKEEKVIRGIDKGRVRAAVDRKESGKDGREERAAAARKEEEKTGSVKNAGLSRDKDKKKEEVKEPSKKEEVKLTAESRNTVGRREDGRLKESSKENKKPEDEGIGSGGRDWRKEDEKVKKEENQPDKEVREESKTKAPEKQAPSCPNKPSDGQARAEEEAAPSIFDEPLEKVKNNDPEMTEVNVNNSDCITNEILVRFTEALEFNTVVKVFALANTRADDHVAFAIAIMLKANKTITSLNLDSNHITGKGILAIFRALLQNNTLTELRFHNQRHICGVKTEMEIAKLLKENTTLLKLGYHFELAGPRMTVTNLLSRNMDKQRQKRLQEQKQAQEASGEKKDRLEVPKVGALAKGSPKPSPQPSPKPAPKNSPKKAGVPAAPPPPPPPLAPPLIMENLKNSLSPATQRKMGDKVLPAQEKNSRDQLLAAIRSSNLKQLKKVEVPKLLQ
Consider B1, for which the binding result in experiment [2] is given as “binds weakly”; in experiment [3], “binds”.

B2: LMOD1-BirA*-FLAG (protein, UniProt Q8BVA4 1-595)
chain: B1 chain
B2: the binding entry in experiment [1] is listed as “binds”.
